Experimental data from article PMC8281810.

Amino acid sequences for entries named in this document (tags omitted). A change or cut given only in a name is not applied to a line headed by its entry.
UniProt Q6ZMR5: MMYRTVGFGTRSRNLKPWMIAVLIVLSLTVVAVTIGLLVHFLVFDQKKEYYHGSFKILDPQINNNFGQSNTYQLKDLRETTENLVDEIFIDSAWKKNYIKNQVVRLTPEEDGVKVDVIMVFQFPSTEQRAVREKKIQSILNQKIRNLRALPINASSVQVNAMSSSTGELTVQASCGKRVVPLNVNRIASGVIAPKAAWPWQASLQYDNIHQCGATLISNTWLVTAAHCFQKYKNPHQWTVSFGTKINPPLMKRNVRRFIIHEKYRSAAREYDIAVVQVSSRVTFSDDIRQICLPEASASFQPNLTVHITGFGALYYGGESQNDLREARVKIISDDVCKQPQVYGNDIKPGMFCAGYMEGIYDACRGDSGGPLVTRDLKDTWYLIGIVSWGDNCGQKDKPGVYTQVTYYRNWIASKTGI
UniProt P05556: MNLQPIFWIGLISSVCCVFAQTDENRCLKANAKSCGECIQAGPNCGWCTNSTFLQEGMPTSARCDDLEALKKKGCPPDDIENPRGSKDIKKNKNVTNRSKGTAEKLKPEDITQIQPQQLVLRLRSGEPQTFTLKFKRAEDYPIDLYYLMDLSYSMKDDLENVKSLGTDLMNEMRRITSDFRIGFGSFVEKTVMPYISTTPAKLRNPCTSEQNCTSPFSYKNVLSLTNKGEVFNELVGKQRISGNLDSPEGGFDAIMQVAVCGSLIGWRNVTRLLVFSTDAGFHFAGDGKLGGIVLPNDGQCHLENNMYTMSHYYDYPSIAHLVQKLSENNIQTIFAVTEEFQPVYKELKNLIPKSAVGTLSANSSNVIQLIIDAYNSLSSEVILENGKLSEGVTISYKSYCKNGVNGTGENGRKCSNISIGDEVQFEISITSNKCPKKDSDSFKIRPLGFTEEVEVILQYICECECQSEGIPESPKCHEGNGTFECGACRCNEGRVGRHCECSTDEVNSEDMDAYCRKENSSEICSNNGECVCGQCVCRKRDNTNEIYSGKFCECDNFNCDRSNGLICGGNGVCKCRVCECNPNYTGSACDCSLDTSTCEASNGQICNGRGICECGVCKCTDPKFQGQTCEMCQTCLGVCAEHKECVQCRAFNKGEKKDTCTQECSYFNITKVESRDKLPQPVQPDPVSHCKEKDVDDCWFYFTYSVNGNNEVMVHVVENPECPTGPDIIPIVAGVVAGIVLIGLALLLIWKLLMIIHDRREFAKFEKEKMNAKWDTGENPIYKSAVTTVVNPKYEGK

Biological target: Transmembrane Serine protease 11A (TMPRSS11a) (UniProt Q6ZMR5)
Assay: affinity purification with mass spectrometry; affinity chromatography of TMPRSS11a-associated endogenous proteins, MS-based proteomics; no conditions given

- binding: binds
Substance: Integrin beta-1 protein (from UniProt P05556 21-798) (receptor)

Results are given in words; binding and its absence hold for the method and conditions named. In cells and extracts the contact can be indirect. A yes stands for co-enrichment or nearness to the bait. Other partners may have been found.
